Values are relative to the signal before dosing, not to a vehicle control; the signal also falls without drug.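 Fibroblast labels name human fibroblasts: mostly primary ones from tissues such as uterus (C12385, HUF), lung (H6013), bone (Hs27A), adrenal (HADF) and skin (WS1), plus mammary HMF and breast cancer-associated Hs343T. The cancer cells are basal-like or mesenchymal-like triple-negative breast cancer lines. The paper calls a changed response a hit when it shifts by more than 3x the replicate standard deviation. The tissue of the other fibroblasts is not given here.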
Tested on: BT20
Assay: relative JC-1 red fluorescence (viability) vs pre-drug, coculture with fibroblast (fraction); higher = more viable cancer cells
Procedure: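 JC-1 labelled TNBC cells cocultured 1:1 (1,500 cells each) with CellTrace Violet stained primary or stromal fibroblasts in 384-well plates in FluoroBrite medium, treated with one of 42 anticancer drugs at 0.1, 1, 10 or 100 uM. JC-1 red fluorescence (mitochondrial integrity in cancer cells only) was read by plate reader every 8 h for 72 h. Values are normalised to each well's pre-drug value. The stock of one drug was tenfold lower, so its dose labels may be too high.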

O=c1[nH]cc(F)c(=O)[nH]1 [Fluorouracil]
relative JC-1 red fluorescence
Conditions	8 h	16 h	24 h	32 h	40 h	48 h	56 h	64 h	72 h
0.1 µM, coculture fibroblast: C12385	0.904	0.835	0.7248	0.663	0.59772	0.563	0.535	0.509	0.494
0.1 µM, coculture fibroblast: H6013	0.92	0.911	0.875	0.84	0.791	0.769	0.76	0.7313	0.699
0.1 µM, coculture fibroblast: H6019	0.84131	0.7425	0.72	0.658	0.595	0.576	0.542	0.515	0.496
0.1 µM, coculture fibroblast: H6076	0.933	0.8435	0.775	0.745	0.722	0.708	0.7082	0.7049	0.6881
0.1 µM, coculture fibroblast: H6231	0.759	0.938	0.785	0.7154	0.673	0.6248	0.583	0.553	0.536
0.1 µM, coculture fibroblast: HADF	0.961	0.908	0.838	0.808	0.774	0.734	0.716	0.693	0.656
0.1 µM, coculture fibroblast: HCFa	0.957	0.859	0.823	0.776	0.723	0.688	0.66	0.632	0.6
0.1 µM, coculture fibroblast: HCPF	0.79	0.908	0.838	0.794	0.747	0.699	0.654	0.646	0.607
0.1 µM, coculture fibroblast: HHSteC	0.975	0.912	0.818	0.853	0.7339	0.727	0.786	0.734	0.753
0.1 µM, coculture fibroblast: HMF	0.896	0.847	0.7454	0.684	0.648	0.603	0.566	0.534	0.504
0.1 µM, coculture fibroblast: HPFa	0.922	0.927	0.9206	0.862	0.831	0.804	0.787	0.776	0.749
0.1 µM, coculture fibroblast: HUF	0.928	0.804	0.7767	0.6943	0.642	0.606	0.58	0.564	0.55
0.1 µM, coculture fibroblast: Hs5	0.852	0.8734	0.806	0.766	0.717	0.68	0.646	0.615	0.587
0.1 µM, coculture fibroblast: Hs27A	0.9105	0.9636	0.894	0.853	0.806	0.787	0.771	0.749	0.695
0.1 µM, coculture fibroblast: Hs343T	0.7772	0.8917	0.779	0.698	0.651	0.596	0.541	0.519	0.483
0.1 µM, coculture fibroblast: WS1	0.85575	0.757	0.687	0.611	0.551	0.522	0.486	0.459	0.448
1 µM, coculture fibroblast: C12385	0.909	0.8335	0.777	0.716	0.648	0.613	0.583	0.565	0.551
1 µM, coculture fibroblast: H6013	0.929	0.856	0.837	0.789	0.744	0.726	0.729	0.708	0.695
1 µM, coculture fibroblast: H6019	0.859	0.751	0.732	0.661	0.615	0.599	0.564	0.541	0.52
1 µM, coculture fibroblast: H6076	0.901	0.823	0.752	0.72	0.698	0.673	0.671	0.67	0.659
1 µM, coculture fibroblast: H6231	0.833	0.921	0.782	0.706	0.645	0.591	0.551	0.528	0.497
1 µM, coculture fibroblast: HADF	0.9605	0.845	0.841	0.78	0.749	0.71	0.688	0.674	0.642
1 µM, coculture fibroblast: HCFa	0.8732	0.812	0.769	0.704	0.654	0.621	0.591	0.563	0.524
1 µM, coculture fibroblast: HCPF	0.987	0.83	0.777	0.717	0.685	0.648	0.604	0.5727	0.536
1 µM, coculture fibroblast: HHSteC	0.892	0.818	0.81	0.729	0.704	0.676	0.661	0.644	0.613
1 µM, coculture fibroblast: HMF	0.972	0.808	0.748	0.697	0.656	0.617	0.59	0.56	0.533
1 µM, coculture fibroblast: HPFa	0.9296	0.854	0.85	0.756	0.723	0.672	0.65	0.61	0.551
1 µM, coculture fibroblast: HUF	0.929	0.847	0.851	0.775	0.731	0.688	0.672	0.649	0.628
1 µM, coculture fibroblast: Hs5	0.9926	0.86891	0.7967	0.7417	0.704	0.666	0.626	0.595	0.569
1 µM, coculture fibroblast: Hs27A	0.897	0.931	0.822	0.829	0.836	0.763	0.75	0.841	0.797
1 µM, coculture fibroblast: Hs343T	0.905	0.832	0.7432	0.673	0.626	0.58	0.539	0.514	0.488
1 µM, coculture fibroblast: WS1	0.8555	0.753	0.713	0.651	0.608	0.584	0.558	0.532	0.528

Source: the supplement of paper PMC6078165
